Data reported in the supplement of paper PMC10849652.
Some of the results follow.

Amino acid sequences for entries named in this document (tags omitted). A change or cut given only in a name is not applied to a line headed by its entry.
UniProt Q5PRF9: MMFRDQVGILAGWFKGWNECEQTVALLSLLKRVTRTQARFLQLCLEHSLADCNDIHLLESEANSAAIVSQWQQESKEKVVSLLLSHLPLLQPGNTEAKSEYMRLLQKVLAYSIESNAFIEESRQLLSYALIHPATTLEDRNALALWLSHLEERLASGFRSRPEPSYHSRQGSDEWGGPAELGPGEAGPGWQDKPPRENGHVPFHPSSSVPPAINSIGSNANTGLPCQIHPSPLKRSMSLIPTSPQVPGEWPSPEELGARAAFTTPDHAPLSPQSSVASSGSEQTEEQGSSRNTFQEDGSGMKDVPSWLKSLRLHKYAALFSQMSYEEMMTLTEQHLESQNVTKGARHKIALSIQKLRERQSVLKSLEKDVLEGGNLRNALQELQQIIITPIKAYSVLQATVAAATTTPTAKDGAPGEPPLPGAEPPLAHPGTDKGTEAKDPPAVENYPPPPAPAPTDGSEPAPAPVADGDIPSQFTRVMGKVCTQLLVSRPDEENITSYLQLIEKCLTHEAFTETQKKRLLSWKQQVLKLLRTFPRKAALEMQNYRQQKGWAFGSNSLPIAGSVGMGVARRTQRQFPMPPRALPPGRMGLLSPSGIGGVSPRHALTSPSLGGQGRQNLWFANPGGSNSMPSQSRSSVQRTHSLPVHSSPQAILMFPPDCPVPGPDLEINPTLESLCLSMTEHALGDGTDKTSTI
UniProt Q9NQC3: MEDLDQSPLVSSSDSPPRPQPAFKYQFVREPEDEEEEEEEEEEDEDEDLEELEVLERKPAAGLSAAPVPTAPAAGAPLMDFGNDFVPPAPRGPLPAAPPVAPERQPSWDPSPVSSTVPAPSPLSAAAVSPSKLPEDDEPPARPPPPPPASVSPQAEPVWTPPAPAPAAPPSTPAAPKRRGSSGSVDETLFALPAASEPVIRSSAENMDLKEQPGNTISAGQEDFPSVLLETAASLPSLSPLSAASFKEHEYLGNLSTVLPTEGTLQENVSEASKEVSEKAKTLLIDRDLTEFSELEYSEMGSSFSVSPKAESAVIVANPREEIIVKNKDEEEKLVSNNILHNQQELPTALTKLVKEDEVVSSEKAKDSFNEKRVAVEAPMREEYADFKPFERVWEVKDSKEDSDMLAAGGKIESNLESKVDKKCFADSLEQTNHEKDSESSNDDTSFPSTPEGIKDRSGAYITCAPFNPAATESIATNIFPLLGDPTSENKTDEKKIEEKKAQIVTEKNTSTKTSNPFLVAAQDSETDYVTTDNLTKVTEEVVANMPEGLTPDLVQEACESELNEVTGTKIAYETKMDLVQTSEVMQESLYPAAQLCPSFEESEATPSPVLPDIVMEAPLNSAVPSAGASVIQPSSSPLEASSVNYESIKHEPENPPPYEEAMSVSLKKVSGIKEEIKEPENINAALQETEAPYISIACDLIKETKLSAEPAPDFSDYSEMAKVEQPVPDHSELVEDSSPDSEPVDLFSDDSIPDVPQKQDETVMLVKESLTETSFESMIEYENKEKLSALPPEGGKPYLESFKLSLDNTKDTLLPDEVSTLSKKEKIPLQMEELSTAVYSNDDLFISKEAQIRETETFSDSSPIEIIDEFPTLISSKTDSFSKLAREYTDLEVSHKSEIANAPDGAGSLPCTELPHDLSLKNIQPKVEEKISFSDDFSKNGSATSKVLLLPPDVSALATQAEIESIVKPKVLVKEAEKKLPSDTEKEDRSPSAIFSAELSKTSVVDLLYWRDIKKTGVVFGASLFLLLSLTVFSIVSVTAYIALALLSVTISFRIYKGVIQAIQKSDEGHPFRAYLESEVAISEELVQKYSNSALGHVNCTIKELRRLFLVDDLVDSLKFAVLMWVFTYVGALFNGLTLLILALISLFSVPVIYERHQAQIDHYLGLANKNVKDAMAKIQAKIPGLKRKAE
UniProt Q9BRK5: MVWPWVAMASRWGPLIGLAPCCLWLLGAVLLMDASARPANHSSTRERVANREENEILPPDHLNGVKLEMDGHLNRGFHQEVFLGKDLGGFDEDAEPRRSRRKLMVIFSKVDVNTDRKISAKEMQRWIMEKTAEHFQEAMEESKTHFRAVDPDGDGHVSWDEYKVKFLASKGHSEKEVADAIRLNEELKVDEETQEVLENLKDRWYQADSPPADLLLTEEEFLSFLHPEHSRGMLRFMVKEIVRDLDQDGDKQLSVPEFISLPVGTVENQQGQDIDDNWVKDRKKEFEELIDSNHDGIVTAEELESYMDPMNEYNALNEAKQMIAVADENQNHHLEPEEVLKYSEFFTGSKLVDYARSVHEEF
UniProt Q9Y3B9: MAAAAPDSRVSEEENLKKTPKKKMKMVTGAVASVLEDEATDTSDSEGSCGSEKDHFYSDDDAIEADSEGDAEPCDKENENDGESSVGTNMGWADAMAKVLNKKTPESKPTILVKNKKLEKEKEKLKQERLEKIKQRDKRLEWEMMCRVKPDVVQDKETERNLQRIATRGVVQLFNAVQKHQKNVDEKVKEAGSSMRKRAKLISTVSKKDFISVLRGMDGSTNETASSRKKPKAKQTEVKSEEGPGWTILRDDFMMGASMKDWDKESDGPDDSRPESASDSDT
UniProt O15126: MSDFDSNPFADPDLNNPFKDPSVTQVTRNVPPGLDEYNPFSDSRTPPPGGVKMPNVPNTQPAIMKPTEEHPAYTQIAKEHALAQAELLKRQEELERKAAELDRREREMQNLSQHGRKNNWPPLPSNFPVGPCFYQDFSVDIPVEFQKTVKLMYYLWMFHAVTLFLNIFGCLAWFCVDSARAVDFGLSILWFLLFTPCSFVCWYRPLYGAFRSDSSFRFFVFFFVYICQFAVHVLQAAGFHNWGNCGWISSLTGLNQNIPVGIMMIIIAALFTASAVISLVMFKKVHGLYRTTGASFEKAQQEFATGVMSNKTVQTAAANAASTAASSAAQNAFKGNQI
UniProt Q96I15: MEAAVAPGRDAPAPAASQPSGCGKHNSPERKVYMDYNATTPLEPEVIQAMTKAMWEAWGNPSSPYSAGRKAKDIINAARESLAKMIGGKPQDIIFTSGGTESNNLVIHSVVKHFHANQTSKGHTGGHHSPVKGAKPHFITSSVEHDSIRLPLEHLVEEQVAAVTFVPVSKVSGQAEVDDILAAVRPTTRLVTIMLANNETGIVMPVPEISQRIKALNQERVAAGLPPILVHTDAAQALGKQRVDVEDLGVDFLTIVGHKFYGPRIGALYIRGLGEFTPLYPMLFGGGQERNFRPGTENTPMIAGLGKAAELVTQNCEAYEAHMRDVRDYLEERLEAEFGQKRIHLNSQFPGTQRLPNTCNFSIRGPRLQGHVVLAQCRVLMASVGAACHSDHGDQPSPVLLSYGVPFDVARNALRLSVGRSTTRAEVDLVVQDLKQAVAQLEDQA
UniProt Q14684: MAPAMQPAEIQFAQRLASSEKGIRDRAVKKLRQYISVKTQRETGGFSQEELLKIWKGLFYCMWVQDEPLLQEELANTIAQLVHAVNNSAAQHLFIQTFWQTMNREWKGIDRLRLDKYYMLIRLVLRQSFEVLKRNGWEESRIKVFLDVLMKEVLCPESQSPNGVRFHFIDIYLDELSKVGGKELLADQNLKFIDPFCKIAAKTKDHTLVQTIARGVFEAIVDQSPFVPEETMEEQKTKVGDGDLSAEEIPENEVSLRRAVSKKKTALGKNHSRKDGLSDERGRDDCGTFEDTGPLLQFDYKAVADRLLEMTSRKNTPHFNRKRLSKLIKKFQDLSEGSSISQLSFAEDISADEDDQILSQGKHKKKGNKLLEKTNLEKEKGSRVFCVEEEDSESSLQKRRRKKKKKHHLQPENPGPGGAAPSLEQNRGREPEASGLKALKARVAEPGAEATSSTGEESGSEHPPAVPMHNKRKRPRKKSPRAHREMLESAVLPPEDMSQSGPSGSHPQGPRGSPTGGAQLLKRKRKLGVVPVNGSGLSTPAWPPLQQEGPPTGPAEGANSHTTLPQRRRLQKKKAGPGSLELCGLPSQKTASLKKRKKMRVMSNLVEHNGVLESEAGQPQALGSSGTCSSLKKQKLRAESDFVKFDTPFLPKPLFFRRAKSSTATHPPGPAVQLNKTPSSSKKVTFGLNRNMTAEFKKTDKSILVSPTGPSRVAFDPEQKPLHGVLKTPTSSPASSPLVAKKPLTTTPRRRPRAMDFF
UniProt Q13296: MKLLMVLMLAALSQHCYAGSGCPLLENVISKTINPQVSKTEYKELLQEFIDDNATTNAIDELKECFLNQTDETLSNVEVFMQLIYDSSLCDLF
UniProt Q0VDG4: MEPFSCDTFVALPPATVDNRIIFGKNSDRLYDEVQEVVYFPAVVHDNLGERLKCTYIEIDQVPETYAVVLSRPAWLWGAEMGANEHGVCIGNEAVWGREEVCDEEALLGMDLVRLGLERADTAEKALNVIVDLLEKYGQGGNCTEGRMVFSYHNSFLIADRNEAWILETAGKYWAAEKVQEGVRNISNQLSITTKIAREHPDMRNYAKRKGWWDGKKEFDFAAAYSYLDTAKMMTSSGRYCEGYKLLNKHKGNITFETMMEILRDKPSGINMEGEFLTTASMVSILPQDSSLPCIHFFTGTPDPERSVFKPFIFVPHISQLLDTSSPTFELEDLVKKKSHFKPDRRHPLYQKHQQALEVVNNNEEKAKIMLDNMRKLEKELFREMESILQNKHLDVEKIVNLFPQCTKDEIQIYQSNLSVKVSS
UniProt Q9Y224: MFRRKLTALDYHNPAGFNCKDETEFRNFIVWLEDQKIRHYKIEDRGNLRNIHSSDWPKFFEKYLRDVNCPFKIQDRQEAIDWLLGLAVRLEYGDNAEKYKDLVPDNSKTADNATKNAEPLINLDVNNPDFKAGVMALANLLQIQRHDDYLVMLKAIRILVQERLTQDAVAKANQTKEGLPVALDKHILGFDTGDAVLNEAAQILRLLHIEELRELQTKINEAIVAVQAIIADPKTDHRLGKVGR
UniProt Q9UBE0: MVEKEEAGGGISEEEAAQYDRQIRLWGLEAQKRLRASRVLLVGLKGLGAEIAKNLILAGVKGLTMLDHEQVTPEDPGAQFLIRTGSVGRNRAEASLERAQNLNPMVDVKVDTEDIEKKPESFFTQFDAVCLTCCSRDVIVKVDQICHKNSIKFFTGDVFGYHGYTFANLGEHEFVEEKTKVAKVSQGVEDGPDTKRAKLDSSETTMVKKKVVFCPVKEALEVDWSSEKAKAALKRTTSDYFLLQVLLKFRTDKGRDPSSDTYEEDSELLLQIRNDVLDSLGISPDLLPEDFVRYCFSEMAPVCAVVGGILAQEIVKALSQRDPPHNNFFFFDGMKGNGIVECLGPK
UniProt Q9HCN8: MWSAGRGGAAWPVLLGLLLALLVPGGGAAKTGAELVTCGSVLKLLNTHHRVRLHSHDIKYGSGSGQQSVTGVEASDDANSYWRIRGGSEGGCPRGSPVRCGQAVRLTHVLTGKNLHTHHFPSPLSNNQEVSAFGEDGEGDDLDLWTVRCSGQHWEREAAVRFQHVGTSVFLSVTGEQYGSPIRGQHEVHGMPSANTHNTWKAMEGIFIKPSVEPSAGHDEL
UniProt Q96KG9: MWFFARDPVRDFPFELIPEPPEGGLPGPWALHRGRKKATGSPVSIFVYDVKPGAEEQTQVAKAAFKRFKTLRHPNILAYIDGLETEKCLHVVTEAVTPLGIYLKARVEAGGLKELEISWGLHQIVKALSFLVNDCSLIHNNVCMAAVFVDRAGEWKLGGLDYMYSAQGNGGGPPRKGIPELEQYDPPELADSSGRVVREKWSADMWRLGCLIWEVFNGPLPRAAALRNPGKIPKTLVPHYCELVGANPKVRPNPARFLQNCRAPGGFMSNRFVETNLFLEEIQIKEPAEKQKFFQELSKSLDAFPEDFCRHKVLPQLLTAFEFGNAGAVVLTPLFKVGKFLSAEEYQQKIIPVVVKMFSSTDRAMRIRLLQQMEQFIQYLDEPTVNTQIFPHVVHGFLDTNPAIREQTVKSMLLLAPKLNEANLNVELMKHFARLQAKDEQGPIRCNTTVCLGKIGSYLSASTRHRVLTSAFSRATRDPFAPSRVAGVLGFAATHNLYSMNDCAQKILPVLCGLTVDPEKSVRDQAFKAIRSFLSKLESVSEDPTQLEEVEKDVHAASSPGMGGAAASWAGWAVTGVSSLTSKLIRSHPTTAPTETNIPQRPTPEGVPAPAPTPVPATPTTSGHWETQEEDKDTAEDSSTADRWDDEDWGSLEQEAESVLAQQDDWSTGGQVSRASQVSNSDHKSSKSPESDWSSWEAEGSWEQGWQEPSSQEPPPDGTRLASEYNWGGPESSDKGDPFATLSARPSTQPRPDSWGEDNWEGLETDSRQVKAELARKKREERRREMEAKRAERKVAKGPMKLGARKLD
UniProt Q9Y3A5: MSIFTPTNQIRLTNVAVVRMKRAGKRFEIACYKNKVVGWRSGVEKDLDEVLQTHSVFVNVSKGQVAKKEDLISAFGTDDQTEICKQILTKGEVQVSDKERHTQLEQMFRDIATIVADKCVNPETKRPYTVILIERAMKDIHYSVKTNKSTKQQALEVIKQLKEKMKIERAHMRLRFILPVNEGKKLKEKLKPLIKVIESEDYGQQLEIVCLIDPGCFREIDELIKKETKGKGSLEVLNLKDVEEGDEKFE

Key:
Assay in all cases: log2 fold change, soluble protein after heating vs DMSO (PISA); higher = thermal stabilisation; K562 cells, 10 uM, 30 min; active = over 0.2 and 3.5 SD of the protein, either way, in both replicates (recomputed)
[1] = compound: COC1=CC=C(C=C1)CN2C=CC3=C2C=C(C=C3)C(=O)NO
Outline: (§1)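 Soluble protein was defined as the supernatant after 21,000xg for 90 min. It came from K562 cells at 2×10^6 cells/mL given 10 μM compound for 30 min, heated in aliquots for 3 min across 48°C-58°C, pooled, and extracted in PBS with 0.5% NP-40 at 4°C, and was quantified by TMTpro 16plex LC-MS/MS with equalised channel sums. Thermal stability against control samples, from duplicates, is reported as log2 fold change.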

filanesib = compound: CON(C)C(=O)N1N=C(c2cc(F)ccc2F)S[C@@]1(CCCN)c1ccccc1 [filanesib]
Outline: as §1

zotarolimus = compound: CO[C@H]1C[C@@H]2CC[C@@H](C)[C@@](O)(O2)C(=O)C(=O)N2CCCC[C@H]2C(=O)O[C@H]([C@H](C)C[C@@H]2CC[C@H](n3cnnn3)[C@H](OC)C2)CC(=O)[C@H](C)/C=C(\C)[C@@H](O)[C@@H](OC)C(=O)[C@H](C)C[C@H](C)/C=C/C=C/C=C/1C [zotarolimus]
Outline: as §1

[2] = compound: COc1cc2nc(-c3cc(F)ccc3O)nc(N[C@@H]3CNC[C@H]3C(C)(C)O)c2cc1OC
Outline: as §1

gefitinib = compound: COc1cc2ncnc(Nc3ccc(F)c(Cl)c3)c2cc1OCCCN1CCOCC1 [gefitinib]
Outline: as §1

lapatinib = compound: CS(=O)(=O)CCNCc1ccc(-c2ccc3ncnc(Nc4ccc(OCc5cccc(F)c5)c(Cl)c4)c3c2)o1 [lapatinib]
Outline: as §1

pictilisib = compound: CS(=O)(=O)N1CCN(Cc2cc3nc(-c4cccc5[nH]ncc45)nc(N4CCOCC4)c3s2)CC1 [pictilisib]
Outline: as §1

idasanutlin = compound: COc1cc(C(=O)O)ccc1NC(=O)[C@@H]1N[C@@H](CC(C)(C)C)[C@](C#N)(c2ccc(Cl)cc2F)[C@H]1c1cccc(Cl)c1F [idasanutlin]
Outline: as §1

alisertib = compound: COc1cc(Nc2ncc3c(n2)-c2ccc(Cl)cc2C(c2c(F)cccc2OC)=NC3)ccc1C(=O)O [alisertib]
Outline: as §1

[3] = compound: COc1cccc2cc(-c3nc([C@H]4CC[C@H](C(=O)O)CC4)n4ncnc(N)c34)[nH]c12
Outline: as §1

Measured: log2 fold change

SAMD4B (UniProt Q5PRF9)
inactive: [1] 0.075 | filanesib 0.139 | zotarolimus 0.072 | [2] 0.14 | gefitinib 0.146 | lapatinib -0.036 | pictilisib -0.044

RTN4 (UniProt Q9NQC3)
inactive: [1] -0.034 | filanesib -0.01 | zotarolimus -0.028 | idasanutlin -0.046 | alisertib 0.011 | [2] 0.057 | gefitinib -0.037 | [3] 0.09 | lapatinib -0.057 | pictilisib 0.061

SDF4 (UniProt Q9BRK5)
inactive: [1] -0.033 | filanesib 0.026 | zotarolimus 0.021 | idasanutlin -0.054 | alisertib -0.061 | [2] 0.029 | gefitinib 0.104 | [3] 0.012 | lapatinib 0.004 | pictilisib -0.01

RRP15 (UniProt Q9Y3B9)
inactive: [1] -0.049 | filanesib 0.012 | zotarolimus 0.033 | idasanutlin 0.037 | alisertib -0.09 | [2] -0.077 | gefitinib 0.016 | [3] 0.027 | lapatinib 0.013 | pictilisib -0.098

SCAMP1 (UniProt O15126)
inactive: [1] -0.081 | filanesib -0.017 | zotarolimus -0.035 | idasanutlin -0.024 | alisertib 0.017 | [2] 0.027 | gefitinib 0.021 | [3] 0.095 | lapatinib -0.021 | pictilisib 0.075

SCLY (UniProt Q96I15)
inactive: [1] -0.001 | filanesib -0.011 | zotarolimus 0.029 | idasanutlin 0.012 | alisertib -0.027 | [2] 0.055 | gefitinib -0.002 | [3] 0.029 | lapatinib 0.023 | pictilisib 0.031

SEC22B (UniProt O75396)
inactive: [1] 0.057 | filanesib -0.031 | zotarolimus 0.055 | idasanutlin -0.009 | alisertib -0.083 | [2] 0.034 | gefitinib 0.017 | [3] -0.031 | lapatinib 0.031 | pictilisib 0.019

RUNX1 isoform 8 (UniProt Q01196)
inactive: [1] -0.055 | filanesib -0.084 | idasanutlin 0.075 | alisertib -0.292 | [2] 0.053 | gefitinib -0.074 | [3] -0.011 | lapatinib -0.001 | pictilisib 0.24

SDAD1 (UniProt Q9NVU7)
inactive: [1] 0.017 | filanesib -0.074 | zotarolimus 0.115 | idasanutlin 0.087 | alisertib 0.002 | gefitinib 0.287 | [3] 0.072 | pictilisib 0.212

RRS1 (UniProt Q15050)
inactive: [1] -0.111 | filanesib 0.593 | zotarolimus 0.033 | idasanutlin 0.262 | alisertib -0.171 | [2] 0.01 | gefitinib 0.005 | [3] -0.169 | lapatinib 0.137 | pictilisib -0.096

RRP1B (UniProt Q14684)
inactive: [1] 0.066 | filanesib -0.036 | alisertib -0.078 | [3] -0.004 | pictilisib -0.186

SCNM1 (UniProt Q9BWG6)
inactive: [1] -0.093 | filanesib 0.134 | idasanutlin 0.135 | alisertib -0.021 | [2] 0 | gefitinib -0.015 | [3] 0.035 | lapatinib -0.078 | pictilisib 0.027

SAMSN1 isoform 3 (UniProt Q9NSI8)
inactive: [1] 0.013 | filanesib -0.021 | zotarolimus 0.034 | idasanutlin -0.026 | alisertib 0.007 | [2] -0.001 | gefitinib 0.007 | [3] -0.029 | lapatinib -0.009 | pictilisib -0.001

SCAP (UniProt Q12770)
inactive: [1] 0.007 | filanesib -0.064 | zotarolimus 0.042 | idasanutlin -0.062 | alisertib -0.04 | [2] -0.038 | gefitinib 0.031 | [3] -0.054 | lapatinib 0.063 | pictilisib 0.052

RWDD2B (UniProt P57060)
inactive: [1] -0.28 | filanesib 0.108 | idasanutlin -0.14 | [2] -0.028 | lapatinib -0.025 | pictilisib 0.165

RSF1 (UniProt Q96T23)
inactive: [1] 0.267 | filanesib -0.078 | zotarolimus 0.023 | idasanutlin -0.147 | alisertib -0.067 | [2] -0.018 | gefitinib 0.037 | [3] -0.17 | lapatinib 0.004 | pictilisib 0.114

SCGB2A2 (UniProt Q13296)
inactive: [1] 0.471 | filanesib 0.093 | idasanutlin 0.005 | alisertib -0.109 | [2] 0.168 | gefitinib 0.279 | [3] 0.111 | lapatinib 0.004 | pictilisib -0.249

SDCCAG8 (UniProt Q86SQ7)
inactive: [1] 0.119 | filanesib -0.076 | idasanutlin 0.008 | [2] 0.085 | lapatinib -0.082 | pictilisib -0.212

SEC24B isoform 3 (UniProt O95487)
inactive: [1] 0.011 | filanesib 0.141 | zotarolimus -0.043 | idasanutlin -0.056 | alisertib 0.049 | [2] -0.014 | [3] 0.004 | lapatinib 0.061 | pictilisib 0.099

SCRN3 (UniProt Q0VDG4)
inactive: [1] -0.018 | filanesib -0.104 | zotarolimus -0.005 | idasanutlin -0.006 | alisertib -0.075 | [2] -0.096 | gefitinib 0.013 | [3] -0.004 | lapatinib 0.017 | pictilisib -0.03

RTRAF (UniProt Q9Y224)
inactive: [1] -0.067 | filanesib 0.231 | zotarolimus 0.036 | idasanutlin 0.076 | alisertib -0.028 | [2] 0.035 | gefitinib -0.012 | [3] -0.109 | lapatinib -0.018 | pictilisib 0.041

SAE1 (UniProt Q9UBE0)
inactive: [1] -0.001 | filanesib -0.044 | zotarolimus 0.045 | idasanutlin -0.07 | alisertib -0.027 | [2] 0.043 | gefitinib -0.019 | [3] -0.013 | lapatinib -0.015 | pictilisib 0.06

SDF2L1 (UniProt Q9HCN8)
inactive: [1] -0.027 | filanesib 0.054 | zotarolimus 0.006 | idasanutlin 0.021 | alisertib -0.015 | [2] -0.017 | gefitinib -0.028 | [3] 0.015 | lapatinib 0.025 | pictilisib 0.045

S100A6 (UniProt P06703)
inactive: [1] -0.127 | filanesib 0.093 | zotarolimus 0.003 | idasanutlin -0.04 | alisertib 0.059 | [2] -0.218 | gefitinib -0.016 | [3] 0.038 | lapatinib -0.079 | pictilisib 0.344

SDHB, A0A087WWT1
inactive: [1] -0.11 | filanesib -0.011 | zotarolimus -0.116 | idasanutlin 0.031 | alisertib 0.119 | [2] 0.07 | [3] -0.023 | lapatinib -0.148 | pictilisib 0.059

SCYL1 (UniProt Q96KG9)
inactive: [1] 0.045 | filanesib -0.026 | zotarolimus 0.019 | idasanutlin -0.039 | alisertib -0.027 | [2] 0.011 | gefitinib 0.007 | [3] 0.006 | lapatinib 0.005 | pictilisib -0.032

RTN4 isoform 2 (UniProt Q9NQC3)
inactive: [1] -0.088 | filanesib 0.126 | zotarolimus -0.012 | idasanutlin -0.057 | [2] 0.065 | lapatinib -0.046 | pictilisib 0.029

Reprinted at random: 2 records from the list, in no set order.
SAMD4B (UniProt Q5PRF9)
inactive: [1] 0.075 | filanesib 0.139 | zotarolimus 0.072 | [2] 0.14 | gefitinib 0.146 | lapatinib -0.036 | pictilisib -0.044

RTN4 isoform 2 (UniProt Q9NQC3)
inactive: [1] -0.088 | filanesib 0.126 | zotarolimus -0.012 | idasanutlin -0.057 | [2] 0.065 | lapatinib -0.046 | pictilisib 0.029

Next results follow:

SCO2 (UniProt O43819)
inactive: [1] -0.078 | filanesib 0.039 | zotarolimus 0.057 | idasanutlin -0.099 | alisertib -0.103 | [2] -0.097 | [3] 0.117 | lapatinib 0 | pictilisib -0.015

SEC13 isoform 3 (UniProt P55735)
inactive: [1] 0.014 | filanesib -0.002 | zotarolimus 0.02 | idasanutlin -0.035 | alisertib -0.033 | [2] 0.064 | gefitinib -0.006 | [3] -0.055 | lapatinib 0.022 | pictilisib 0.003

SBDS (UniProt Q9Y3A5)
inactive: [1] 0.036 | filanesib -0.116 | zotarolimus 0.022 | idasanutlin -0.125 | alisertib -0.054 | [2] 0.106 | gefitinib 0.024 | [3] -0.016 | lapatinib -0.043 | pictilisib 0.015

SCP2 (UniProt P22307)
inactive: [1] 0.029 | filanesib -0.031 | zotarolimus -0.025 | idasanutlin -0.05 | alisertib -0.042 | [2] 0.013 | gefitinib 0.018 | [3] 0.03 | lapatinib 0.014 | pictilisib 0.045
